Among the data in PubChem BioAssay AID2685 (National Center for Advancing Translational Sciences (NCATS), 2010) are cell number change and AC50 values, retold here.

What is called AC50 is the concentration giving half of the maximal activity seen. A lower AC50 goes with activity at low concentration.

A short description of the assay: qHTS Assay for Lipid Storage Modulators in Drosophila S3 Cells.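 As to cell number change: cells counted by Cell Tracker Red CMTPX staining in the red channel.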 The settings on record: BODIPY lipid droplet fluorescence, 18-24 h; for cell number change: measured here: cell count max response, cells fed with added oleic acid. The essentials: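 Drosophila S3 cells loaded with oleic acid (400 uM, as added) and compounds at several concentrations; lipid droplets imaged by 488-nm laser-scanning cytometry, 500–530 nm intensity and object ratio to cell channel. Percent activity normalized to 20 uM Triacsin C.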
On the technique in general: Quantitative high-throughput screening tests each substance at several concentrations.

The mark [1] stands for this setting: measured here: cell number channel AC50, cells fed with added oleic acid.
The mark [2] stands for this setting: measured here: lipid fluorescence (Fed channel) AC50, cells fed with added oleic acid.

The list shows a part of the results. The main result of the screen is listed elsewhere. These columns were measured beside it and carry no call. Compounds called inactive in the main read-out are mostly missing here. Words in brackets tell the shape of the fitted curve; partial curves, single points and poor fits give uncertain potencies.

Regarding `COc1ccc(OC)c(C(=O)c2ccc(C(=O)Nc3ccc4ccccc4c3)cc2)c1`, the cell number change was 17.2%.

Take `CCC1CCCCN1S(=O)(=O)c1ccc(C(=O)Nc2nnc(C3CC3)o2)cc1` (stereo not given): the cell number change worked out at 13.8%.

In the case of `Fc1ccc(-[n+]2nc(Nc3ccccc3)sc2-c2c3ccccc3cc3ccccc23)cc1`, the cell number change was -60.5%. In addition, the AC50 under setting [1] was 18.4 µM [falling, partial curve].

With `Cc1ccc(SCC(=O)NCCCN2CCOCC2)cc1`, the cell number change is -118%. In addition, the AC50 under setting [1] is 0.13 µM [falling, full curve, poor fit]. Besides, the AC50 under setting [2] was 3.26 µM [falling, partial curve].

Regarding `COc1ccc(C)cc1NC(=O)CCS(=O)(=O)c1cc2c(cc1Cl)NC(=O)CO2`, the cell number change is -38.2%. Under setting [1], the AC50 is 0.366 µM [falling, full curve]. Further, the AC50 under setting [2] is 1.84 µM [falling, partial curve].

For the compound `CCCCn1c(N)c(N(C(=O)CSc2nnc(C)n2-c2ccccc2)C2CCCC2)c(=O)[nH]c1=O`, the cell number change is -3.48%.

With `CCC(=O)Nc1c(-c2ccc(OC)cc2)c(=O)c2ccccc2n1C`, the cell number change was -10.3%. Also, the AC50 under setting [2] was 16.4 µM [falling, single point].

As for `OCCC#Cc1ccc(CN2CCN(CCc3ccccc3)C(CCO)C2)cc1` (stereo not given), the cell number change amounted to 26.7%.

As to `O=C1c2cc3ccccc3c(-c3ccccc3)c2C(=O)N1c1ccccn1`, the AC50 under setting [2] is 1.84 µM [falling, partial curve].

For the compound `Cc1nc2ccc(S(=O)(=O)NCC(=O)NC(C)c3ccccc3)cc2s1` (stereo not given), the cell number change was 4.1%. For the same compound, the AC50 under setting [2] was 0.146 µM [rising, single point].

On to `Cc1nnc2n(-c3ccccc3)c(=O)c3c4c(sc3n12)CCCC4`, for which the AC50 under setting [2] is 0.103 µM [rising, full curve, poor fit].

As to `O=C(O)c1cccc(-n2cccc2/C=C2/SC(=O)N(CC(=O)N3CCCC3)C2=O)c1`, the cell number change was -6.67%. Besides, the AC50 under setting [2] is 29.1 µM [falling, single point].

For `O=C(N/N=C/c1cc(Br)c(O)c(Br)c1)c1cccnc1`, the cell number change was -26.1%.

Consider `COc1ccc(-c2cc(C(=O)NCC(c3ccccc3)N(C)C)c3ccccc3n2)cc1OC` (stereo not given), for which the cell number change came out at 15.6%. Besides, the AC50 under setting [2] was 1.3 µM [rising, partial curve, poor fit].

Turning to `O=C(COC(=O)/C=C/c1cccc(Br)c1)Nc1cccc(S(=O)(=O)NC2=NCCC2)c1`, the cell number change is -31.8%. For the same compound, under setting [1], the AC50 was 5.8 µM [falling, full curve, poor fit]. Further, the AC50 under setting [2] was 7.31 µM [falling, full curve].

On to `Cc1ccc(Cl)c(OCC(=O)Nc2ccccc2C(=O)NC2CC2)c1`, for which the half-maximal activity concentration (AC50) under setting [2] was 2.06 µM [falling, partial curve].

As for `CC(C)CCNC(=O)NC(=O)COC(=O)/C=C/c1cnc2ccccc2n1`, the cell number change was -14.9%. Besides, under setting [1], the AC50 is 0.82 µM [falling, full curve, poor fit]. The AC50 under setting [2] is 29.1 µM [falling, single point].

On to `O=C(/C=C/c1cccc([N+](=O)[O-])c1)N1CCN(S(=O)(=O)c2cccs2)CC1`, for which the cell number change is -5.46%.

`CS(=O)(=O)c1ccc(Cl)c(NC(=O)c2cc(S(=O)(=O)N3CCOCC3)ccc2N2CCCC2)c1`: the cell number change was -7.53%. In addition, the AC50 under setting [2] was 0.00461 µM [falling, full curve, poor fit].

Turning to `COc1ccc(C(=O)OCC(=O)Nc2ccc(N3CCOCC3)cc2)cc1OC`, the cell number change is -9.14%. Also, the concentration at half-maximal activity (AC50) under setting [2] is 29.1 µM [falling, single point].

Consider `O=C(Nc1nccs1)C1CCCN1S(=O)(=O)c1cccc2cccnc12` (stereo not given), for which the cell number change amounted to 33.1%. Also, the AC50 under setting [1] is 5.8 µM [rising, full curve, poor fit]. Also, the AC50 under setting [2] is 3.66 µM [rising, single point].

Regarding `Cc1nnc2c(Oc3ccccc3)nc3ccccc3n12`, the cell number change is 36.8%. The AC50 under setting [1] was 20.6 µM [rising, single point]. Besides, under setting [2], the AC50 is 29.1 µM [rising, single point].

Take `COc1ccc(-n2ncc3c(N4CCc5ccccc54)ncnc32)cc1`: the cell number change is -1.18%. Also, the AC50 under setting [2] is 0.82 µM [rising, full curve].

Turning to `Nc1cc(=O)[nH]c(SCC(=O)NCC2CCCO2)n1` (stereo not given), the cell number change is 0.905%.

Turning to `CCOC(=O)N1CCN(C(=O)c2cccc(OC)c2O)CC1`, the cell number change is 56.5%. Also, under setting [1], the AC50 is 20.6 µM [rising, single point].

Turning to `CCCCNC(=O)CCCn1c(=O)[nH]c2ccc(Br)cc2c1=O`, the cell number change was -1.88%. Under setting [2], the AC50 is 1.84 µM [rising, partial curve, poor fit].

For the compound `O=C(NCc1ccc(F)cc1)C(c1ccc(Cl)cc1)N(C(=O)c1csnn1)C1CC1` (stereo not given), the cell number change is 0.855%.

Take `CCOc1ccc(-c2ncncc2-c2ccc(OC)c(OC)c2)c(O)c1`: the cell number change turned out to be 15.7%. The AC50 under setting [2] was 4.11 µM [rising, full curve, poor fit].

`COc1cc(OC)c(/C=N/NC(=O)c2ccc(NC(C)=O)cc2)cc1Br`: the cell number change is 22.4%. Also, under setting [2], the AC50 is 29.1 µM [rising, single point].

For `COc1ccccc1C(=O)Nc1ccc2nc(SCC(=O)N(C)C)sc2c1`, the cell number change worked out at 6.67%. Moreover, the AC50 under setting [2] was 0.651 µM [rising, single point].

`O=C(Nc1ccc(Cl)cc1)N1CCSc2ccccc21`: the AC50 under setting [1] was 2.31 µM [falling, partial curve].

On to `COc1ccc(-n2nnnc2SCC(=O)Nc2ccc3c(c2)OCCO3)cc1OC`, for which the cell number change is -26.4%. Besides, under setting [2], the AC50 was 1.84 µM [rising, full curve].

On to `CCOC(=O)c1c(C)nc(C)c(C(=O)OCC)c1-c1cccnc1`, for which the cell number change stood at 24.7%. The AC50 under setting [2] was 0.92 µM [rising, full curve, poor fit].

In the case of `COC(=O)C1=C(C)OC(N)=C(C#N)C1c1cc2cccc(C)c2nc1Cl` (stereo not given), under setting [2], the AC50 is 1.16 µM [rising, single point].

Consider `Cc1ccc(C(=O)N/C(=C\c2cccs2)C(=O)NCCCN2CCOCC2)cc1`, for which the cell number change was -22.2%. Besides, under setting [1], the AC50 is 0.0058 µM [falling, full curve, poor fit]. In addition, the AC50 under setting [2] was 0.13 µM [rising, full curve, poor fit].

On to `CC(NC(=O)CN1CCC(C(N)=O)CC1)c1ccccc1` (stereo not given), for which the cell number change is -2.19%.

In the case of `COc1ccc(NC(C)=O)cc1NC(=O)CSc1nc2ncccc2[nH]1`, the cell number change is -6.78%.

With `COc1ccc(OCC(=O)OCC(=O)NCc2ccco2)cc1`, the cell number change was -38.1%. In addition, the AC50 under setting [1] was 1.16 µM [falling, full curve]. Besides, the AC50 under setting [2] was 1.3 µM [falling, full curve].

Regarding `CN(C)S(=O)(=O)c1cccc(NC(=S)N/N=C/c2ccc(O)c(O)c2O)c1`, the cell number change was -15.2%.

Turning to `COCc1ccc(C(=O)N2CCCC(C(=O)c3cccc(C(F)(F)F)c3)C2)o1` (stereo not given), the AC50 under setting [2] was 9.2 µM [falling, partial curve, poor fit].

On to `CS(=O)(=O)Nc1cccc(C2=NN(C(=O)c3ccccc3Cl)C(c3ccccc3O)C2)c1` (stereo not given), for which the cell number change amounted to 18.8%. For the same compound, the AC50 under setting [2] was 1.3 µM [rising, full curve].

As to `O=C(CCc1ccccc1)NCCc1ccc(F)cc1`, the cell number change is -18.7%. Under setting [2], the half-maximal activity concentration (AC50) was 0.58 µM [rising, single point].

In the case of `CCC[C@H]1CCCC/C=C\CCCC(=O)OCCN1C(=O)OC(C)(C)C`, the cell number change is -34.3%. Moreover, under setting [1], the AC50 was 9.2 µM [falling, partial curve]. In addition, under setting [2], the AC50 was 0.13 µM [falling, full curve].

Take `CC(C)OCCCNC(=O)CNC(=O)c1ccc(Cl)c(Cl)c1`: the AC50 under setting [2] was 0.00517 µM [rising, full curve, poor fit].

For the compound `CCN(CCO)Cc1cc(=O)oc2cc3c(cc12)CCC3`, the cell number change is -40.9%. Also, under setting [1], the AC50 is 14.6 µM [falling, partial curve]. The AC50 under setting [2] is 8.2 µM [falling, partial curve, poor fit].

In the case of `CCCC(=O)c1cc(F)c(N2CCN(S(=O)(=O)c3ccccc3)CC2)cc1C`, the cell number change was -13%. In addition, under setting [2], the AC50 was 8.2 µM [rising, partial curve].

With `CCOC(=O)c1sc(NC(=O)c2c(OC)cccc2OC)nc1C`, the cell number change worked out at 12.6%. Also, the AC50 under setting [2] was 7.31 µM [rising, partial curve].

Turning to `COc1ccc(CCN(C)C(=O)CN2C(=O)c3ccccc3S2(=O)=O)cc1OC`, the cell number change is 1.95%. Under setting [2], the AC50 is 0.0259 µM [rising, full curve, poor fit].

As for `CCCCNC(=O)c1ccccc1Cl`, the cell number change came out at 1.37%.

Consider `N/C(Cc1ccc(Cl)cc1)=N\OC(=O)Cc1ccc([N+](=O)[O-])cc1`, for which the cell number change came to 22%. Besides, the AC50 under setting [1] is 1.03 µM [rising, single point]. The AC50 under setting [2] was 13 µM [rising, partial curve].

Regarding `Cc1ccc2cccc(N=Cc3c(C)[nH]n(-c4ccccc4)c3=O)c2n1`, the cell number change was -13.3%. Besides, the AC50 under setting [2] is 8.2 µM [falling, single point].

Turning to `O=c1[nH]cnc(O)c1C(c1ccc([N+](=O)[O-])cc1)c1c(O)nc[nH]c1=O`, the cell number change is -1.76%. For the same compound, the AC50 under setting [2] was 6.51 µM [rising, single point].

On to `COc1cc(OC)c(N2CC(C(=O)Nc3cc(Cl)ccc3N3CCOCC3)CC2=O)cc1Cl` (stereo not given), for which the cell number change was 0.774%. For the same compound, the AC50 under setting [2] is 0.164 µM [rising, full curve, poor fit].

Take `CC1=C(n2nnc([N+](=O)[O-])n2)C(c2cccnc2)C(C#N)=C(N)O1` (stereo not given): the cell number change was -19.7%. Besides, the AC50 under setting [2] is 25.9 µM [falling, single point].

Turning to `Cc1cc(N=Cc2c(O)n(-c3cccc(Cl)c3)c(=O)c3ccccc23)no1`, the cell number change came out at 15.7%. For the same compound, the AC50 under setting [2] was 4.61 µM [rising, full curve].

With `COC(=O)c1sc(=S)n(-c2ccc(Cl)cc2)c1C`, the cell number change amounted to 41.1%. In addition, the AC50 under setting [1] was 4.61 µM [rising, full curve, poor fit].

Regarding `COc1ccc(NC(=O)CSCC(=O)Nc2cccc(S(=O)(=O)N3CCCCCC3)c2)cc1`, the cell number change is -17.2%.

Turning to `O=C(N/N=C/c1ccc(F)cc1)c1cc(-c2ccccn2)nc2ccccc12`, under setting [1], the AC50 is 6.51 µM [rising, single point].

On to `CC1CCN(Cc2ccc(NC(=O)CC3Oc4ccccc4NC3=O)cc2)CC1` (stereo not given), for which the cell number change turned out to be 10.7%.

On to `COc1ccc2oc(-c3ccccc3[N+](=O)[O-])cc(=O)c2c1`, for which the cell number change was -3.74%. For the same compound, the AC50 under setting [1] was 3.26 µM [falling, single point].

On to `COc1cccc(N(C(=O)Cn2nnc(-c3cccs3)n2)C(C(=O)NC(C)C)c2ccc(C)o2)c1` (stereo not given), for which the AC50 under setting [1] was 0.0517 µM [falling, full curve, poor fit].
